US20080305997A1
No constants are given. Whether binding was seen depends on the method and setting. Some entries that bind do so weakly or less than the wild type.

Biological target: sCD4-HRP (Research Diagnostics Inc.) (UniProt P01730)
Assay: microtiter assay, plate-bound peptide, sCD4-HRP

GPNGQTCAEKNKCVGHIPGC [P11, C-terminal peptide of Salp15 (amino acids 95-114)]
binding: binds
